Where “and” joins values, the source holds several entries; their conditions need not be identical. Identical values can stand only once. In all, about 300,000 compounds went through this assay and about 5,400 (1.8%) were called active. Inconclusive means that the source gave no clear call. Such entries were picked first, then a sample of the others. Calls come from the whole dose curve; tested in HEK293 cells. A potency beside an inconclusive call is a rough fit, not a confirmed value.
Assay: qHTS for inhibitors of binding or entry into cells for Marburg Virus
Conditions: Marburg virus pseudotyped entry inhibition, cell reporter; activity change, negative = inhibition: at 37.8 µM (top of the series) unless noted
% is set by controls: 0 for no effect and ±100 for the full control effect; potency is the fitted concentration of half-maximal effect.

| SMILES | Potency | activity change, negative = inhibition |
| --- | --- | --- |
| Cc1ccc(-c2cn3cc(C)ccc3n2)cc1 | active: 0.316 µM | – |
| CC(C(=O)Nc1ccccc1Br)N1c2cccc3cccc(c23)S1(=O)=O (stereo not given) | inconclusive: 11.2 µM [inhibitor, partial curve, poor fit] | – |
| O=C(CSc1ccccc1)Nc1cccnc1 | inconclusive: 31.6 µM [activator, partial curve, poor fit] | – |
| N#C/C(=C\C=C\c1ccccc1)C(=O)N1CCCC1 | – | inactive: -7.71% [at 46.1 µM] |
| COc1ccc2c(CCNC(=O)Nc3ccccc3)c[nH]c2c1 | inconclusive: 2.82 µM [inhibitor, full curve, poor fit] | – |
| Cc1ccc(CNC(=S)Nc2ccc(NS(=O)(=O)c3ccc(C)cc3)cc2)cc1 | inconclusive: 20 µM [inhibitor, single point] | – |
| CC(C)CCCCCCNC(=S)Nc1ccc(S(=O)(=O)N2CCOCC2)cc1 | inconclusive: 14.1 µM [inhibitor, partial curve, poor fit] | – |
| COc1ccc(/C=C/C(=O)NC(=S)Nc2ccc(S(=O)(=O)Nc3cc(C)on3)cc2)cc1 | – | inactive: -20.9% |
| CCN(CC(=O)Nc1c(F)cccc1F)C(=O)CN(C)S(=O)(=O)c1ccc(F)cc1 | – | inactive: 7.56% |
| CCn1cc(C(=O)NCCc2ccc(OC)c(OC)c2)c(=O)c2cc(S(=O)(=O)N3CCOCC3)ccc21 | inconclusive: 17.8 µM [inhibitor, single point] and inconclusive: 562 nM [inhibitor, full curve, poor fit] | – |
| CCCc1nc2c([nH]1)c(=O)n(C)c(=O)n2C | inconclusive: 5.01 µM [activator, partial curve, poor fit] | – |
| CN(C)c1ccc(/C=C/c2ccncc2)cc1 | – | inactive: 9.74% |
| COC(=O)C1=C(CN2CCCc3ccccc32)NC(=O)NC1c1ccc(F)cc1 (stereo not given) | inconclusive: 6.51 µM [inhibitor, partial curve] | – |
| CCc1cccc(CC)c1N(COC)C(=O)Cn1cnc2ccccc21 | inconclusive: 31.6 µM [inhibitor, partial curve, poor fit] | – |
| COC(=O)c1[nH]c2cc(C)ccc2c1NC(=O)CN1CCN(c2ccccc2OC)CC1 | inconclusive: 35.5 µM [inhibitor, single point] | – |
| CCOC(=O)Nc1c(C(=O)OC)[nH]c2cc(OC)ccc12 | inconclusive: 4.47 µM [inhibitor, full curve, poor fit] | – |
| C[C@H](NS(=O)(=O)c1ccc(Cl)cc1)C(=O)OCC(=O)NC(=O)Nc1ccc2c(c1)OCCO2 | inconclusive: 2.51 µM [activator, partial curve, poor fit] | – |
| CCOc1cc(CNCCc2ccc(S(N)(=O)=O)cc2)ccc1OCC(=O)NC1CCCCC1 | inconclusive: 11.2 µM [inhibitor, partial curve, poor fit] | – |
| Cc1[nH]c2ccccc2c1/C=N/NC(=O)CNC(=O)c1ccc2c(c1)OCCO2 | inconclusive: 11.2 µM [inhibitor, partial curve, poor fit] | – |
| Cc1ccc(CN(C(=O)c2ccc(F)cc2)c2ccccn2)o1 | – | inactive: 13.4% [at 46.1 µM] |

| SMILES | Potency | activity change, negative = inhibition |
| --- | --- | --- |
| CC1CCCC(C)N1NC(=O)Cc1ccccc1 (stereo not given) | – | inactive: 2.97% [at 46.1 µM] |
| Nc1nonc1C(=O)N1CCCC1 | – | inactive: -15.9% [at 46.1 µM] |
| CCCSC1=C(C#N)C(c2cccs2)C(C(=O)Nc2ccccc2)=C(C)N1 (stereo not given) | inconclusive: 5.62 µM [inhibitor, partial curve, poor fit] | – |
| O=c1[nH]cnc2cc(-c3ccc(Br)cc3)sc12 | inconclusive: 5.62 µM [activator, single point] | – |
| CC1=NN(/C(=N\c2nnc(C)s2)Nc2ccc(C)cc2)[C@H](c2ccc(C)cc2)S1 | inconclusive: 18.3 µM [inhibitor, single point] | – |
| O=C(O)Cn1nnc(-c2cccs2)n1 | inconclusive: 28.2 µM [activator, single point] | – |
| CCn1nnc2cc(C(=O)O)ccc21 | – | inactive: 6.75% |
| O=C(Oc1cccc(/C=N/Nc2nc(N3CCOCC3)nc(N3CCOCC3)n2)c1)c1ccco1 | inconclusive: 35.5 µM [inhibitor, partial curve, poor fit] | – |
| Cc1nc(NC(=O)/C=C/c2ccccc2)sc1C(=O)Nc1ccc(Cl)cc1 | inconclusive: 23.1 µM [inhibitor, single point] | – |
| Cc1cc(C(=O)CSc2ncn[nH]2)c(C)n1-c1cccc(S(=O)(=O)N2CCOCC2)c1 | inconclusive: 0.282 µM [inhibitor, full curve, poor fit] | – |
| CN=c1scc(C)n1/N=C/c1ccc(O)cc1O | inconclusive: 8.91 µM [inhibitor, partial curve, poor fit] | – |
| Cc1ccc(-n2nc(C)c3c2OC(N)=C(C#N)C3c2ccco2)cc1 (stereo not given) | – | inactive: 4.5% |
| Cc1ccc2nc(-c3ccc(NC(=O)COC(=O)c4ccc(Br)o4)cc3)sc2c1 | inconclusive: 3.98 µM [inhibitor, full curve, poor fit] | – |
| Cc1ccc(CN2C(=O)CCC2C(=O)NCCN(CC(C)C)CC(C)C)cc1 (stereo not given) | inconclusive: 14.1 µM [inhibitor, partial curve, poor fit] | – |
| COc1ccc(-c2[nH]ncc2/C=N/NC(=O)c2ccc(Br)cc2)c(OC)c1 | inconclusive: 5.62 µM [inhibitor, single point] | – |
| CCOC(=O)c1c(/N=C/c2cc(OC)cc([N+](=O)[O-])c2O)sc(C)c1C | inconclusive: 35.5 µM [activator, single point] | – |
| CCC(CC)c1nnc(NC(=O)CCS(=O)(=O)Cc2ccccc2)s1 | inconclusive: 25.1 µM [activator, single point] | – |
| CCOc1ccc(CN(C(=O)c2oc3ccccc3c2C)C2CCS(=O)(=O)C2)cc1 (stereo not given) | inconclusive: 23.1 µM [inhibitor, single point] | – |
| CCn1c(CNc2ccc(F)cc2)nnc1SCCN1CCCCC1 | inconclusive: 32.6 µM [inhibitor, single point] | – |
| C=CCOC(=O)N[C@H](/C(C(=O)OC)=C(\C)NCc1ccccc1)c1ccc2c(c1)OCO2 | inconclusive: 0.0266 µM [inhibitor, partial curve, poor fit] | – |

From PubChem BioAssay AID540276 (National Center for Advancing Translational Sciences (NCATS), 2011)
